Experimental data taken from publication PMC4172637.
These are yes or no findings as the source states them, for the method shown. Binding seen in cells or lysates may run through a third protein. A result given as binding can be weak or reduced; the word gives no strength. For part of these data: Sequences can lack the tags named with a protein.

Sequences of proteins named here, by UniProt entry; tags and fusion partners are left off. A change or cut given only in a name is not applied to a line headed by its entry.
UniProt Q9W542: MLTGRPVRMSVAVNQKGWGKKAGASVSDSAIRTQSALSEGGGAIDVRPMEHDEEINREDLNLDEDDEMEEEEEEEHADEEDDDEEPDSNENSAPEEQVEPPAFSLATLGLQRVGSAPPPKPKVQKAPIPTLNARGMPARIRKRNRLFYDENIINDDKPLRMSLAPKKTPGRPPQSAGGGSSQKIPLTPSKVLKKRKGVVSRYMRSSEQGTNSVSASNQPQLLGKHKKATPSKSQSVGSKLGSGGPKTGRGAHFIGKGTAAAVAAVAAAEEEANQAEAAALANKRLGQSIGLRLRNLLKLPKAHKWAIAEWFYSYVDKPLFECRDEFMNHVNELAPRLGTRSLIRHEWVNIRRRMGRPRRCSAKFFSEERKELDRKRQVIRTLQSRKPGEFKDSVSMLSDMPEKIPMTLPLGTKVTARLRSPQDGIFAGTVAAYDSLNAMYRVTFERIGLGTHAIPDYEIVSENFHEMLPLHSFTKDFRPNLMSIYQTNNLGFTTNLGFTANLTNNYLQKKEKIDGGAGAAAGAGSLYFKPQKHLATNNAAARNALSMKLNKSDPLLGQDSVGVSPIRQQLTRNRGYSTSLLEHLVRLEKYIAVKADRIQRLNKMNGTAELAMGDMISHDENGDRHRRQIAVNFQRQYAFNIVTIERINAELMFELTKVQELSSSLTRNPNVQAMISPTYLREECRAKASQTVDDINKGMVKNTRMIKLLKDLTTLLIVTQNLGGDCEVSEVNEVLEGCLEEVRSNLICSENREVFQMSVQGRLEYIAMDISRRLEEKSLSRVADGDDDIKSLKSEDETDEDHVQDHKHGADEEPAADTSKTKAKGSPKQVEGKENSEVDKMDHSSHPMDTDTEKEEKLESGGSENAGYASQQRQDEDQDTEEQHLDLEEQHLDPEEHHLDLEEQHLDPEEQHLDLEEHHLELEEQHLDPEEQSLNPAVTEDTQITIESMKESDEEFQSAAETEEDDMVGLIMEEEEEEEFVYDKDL

How the values were obtained:
[1] = target: T1, dCTCF (endogenous) (Drosophila (endogenous in S2 cells)) (UniProt Q9VS55); test: co-IP; endogenous: nuclear extract of wildtype S2 cells precipitated with CP190 or dCTCF specific antibodies; Western blot; mouse IgG as control
T1 sequence: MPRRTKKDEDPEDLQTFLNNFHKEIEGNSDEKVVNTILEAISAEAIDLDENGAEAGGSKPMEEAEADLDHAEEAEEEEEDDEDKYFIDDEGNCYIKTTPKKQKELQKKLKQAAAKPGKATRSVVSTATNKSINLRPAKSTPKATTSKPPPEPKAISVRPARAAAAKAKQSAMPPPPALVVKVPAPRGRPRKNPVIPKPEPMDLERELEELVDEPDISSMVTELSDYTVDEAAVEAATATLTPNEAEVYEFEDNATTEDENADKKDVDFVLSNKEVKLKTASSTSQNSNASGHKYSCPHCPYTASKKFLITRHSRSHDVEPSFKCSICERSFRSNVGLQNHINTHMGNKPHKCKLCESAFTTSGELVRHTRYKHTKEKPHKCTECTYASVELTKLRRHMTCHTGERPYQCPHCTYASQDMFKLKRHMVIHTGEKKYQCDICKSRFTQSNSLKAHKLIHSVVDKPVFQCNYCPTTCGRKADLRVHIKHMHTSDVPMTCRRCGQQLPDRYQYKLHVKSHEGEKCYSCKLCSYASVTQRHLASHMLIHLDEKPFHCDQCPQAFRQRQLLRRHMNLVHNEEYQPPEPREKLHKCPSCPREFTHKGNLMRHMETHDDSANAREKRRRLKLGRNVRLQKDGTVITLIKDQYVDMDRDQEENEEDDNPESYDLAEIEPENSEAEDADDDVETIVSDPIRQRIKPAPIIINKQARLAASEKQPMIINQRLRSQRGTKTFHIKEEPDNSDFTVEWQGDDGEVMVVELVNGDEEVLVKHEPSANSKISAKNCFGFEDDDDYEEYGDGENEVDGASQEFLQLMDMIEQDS

[2] = target: T2, FLAG-dCTCF (Drosophila) (UniProt Q9VS55); test: co-IP; FLAG-M2 antibody precipitation from nuclear extract of S2 cells stably expressing FLAG-CP190 or FLAG-dCTCF; washes 20 mM Tris-HCl pH 7.5, 100 mM NaCl, 0.25% NP-40; Western blot; untransfected S2 cells as negative control
T2 sequence: T1 sequence

[3] = target: T3, Centrosomal protein 190 (endogenous) (Drosophila (endogenous in S2 cells)) (UniProt Q24478); test: co-IP; endogenous: nuclear extract of wildtype S2 cells precipitated with CP190 or dCTCF specific antibodies; Western blot; mouse IgG as control
T3 sequence: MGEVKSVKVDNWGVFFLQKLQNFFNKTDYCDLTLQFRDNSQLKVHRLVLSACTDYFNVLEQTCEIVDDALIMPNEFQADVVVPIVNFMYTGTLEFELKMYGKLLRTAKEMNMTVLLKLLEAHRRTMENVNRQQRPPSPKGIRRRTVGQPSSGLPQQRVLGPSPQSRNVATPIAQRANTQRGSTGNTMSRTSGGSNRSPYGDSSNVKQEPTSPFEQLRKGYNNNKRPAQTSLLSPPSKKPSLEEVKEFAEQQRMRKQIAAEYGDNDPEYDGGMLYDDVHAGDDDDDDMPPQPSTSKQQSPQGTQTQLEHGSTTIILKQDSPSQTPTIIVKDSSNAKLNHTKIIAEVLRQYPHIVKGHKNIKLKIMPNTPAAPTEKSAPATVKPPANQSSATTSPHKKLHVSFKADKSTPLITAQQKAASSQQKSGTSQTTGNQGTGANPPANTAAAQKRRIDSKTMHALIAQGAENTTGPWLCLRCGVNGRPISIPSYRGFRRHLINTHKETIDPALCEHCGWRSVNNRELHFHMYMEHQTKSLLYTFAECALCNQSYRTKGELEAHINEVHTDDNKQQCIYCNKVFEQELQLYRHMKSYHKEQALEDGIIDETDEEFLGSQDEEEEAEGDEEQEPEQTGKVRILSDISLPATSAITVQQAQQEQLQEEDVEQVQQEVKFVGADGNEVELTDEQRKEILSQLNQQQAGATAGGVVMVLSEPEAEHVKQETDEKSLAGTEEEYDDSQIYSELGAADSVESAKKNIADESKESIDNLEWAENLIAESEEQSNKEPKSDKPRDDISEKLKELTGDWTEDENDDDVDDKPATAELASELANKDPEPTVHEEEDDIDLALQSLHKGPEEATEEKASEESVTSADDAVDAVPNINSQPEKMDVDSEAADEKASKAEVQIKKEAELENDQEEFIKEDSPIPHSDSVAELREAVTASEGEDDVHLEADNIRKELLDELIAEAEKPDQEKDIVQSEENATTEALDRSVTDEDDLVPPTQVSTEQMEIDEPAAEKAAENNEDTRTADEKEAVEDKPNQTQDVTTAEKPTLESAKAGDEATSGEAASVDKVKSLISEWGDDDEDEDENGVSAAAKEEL

[4] = target: T4, FLAG-CP190 (Drosophila) (UniProt Q24478); test: co-IP; FLAG-M2 antibody precipitation from nuclear extract of S2 cells stably expressing FLAG-CP190 or FLAG-dCTCF; washes 20 mM Tris-HCl pH 7.5, 100 mM NaCl, 0.25% NP-40; Western blot; untransfected S2 cells as negative control
T4 sequence: T3 sequence

Measured: binding

Pzg (Drosophila (endogenous in S2 cells))
binds: [1] | [2]

Mip130 (from UniProt Q9W542)
binds: [1] | [3] | [2] | [4]
